PMC4847014

Sequences of proteins named here, by UniProt entry; tags and fusion partners are left off. A change or cut given only in a name is not applied to a line headed by its entry.
UniProt Q04207, whole entry: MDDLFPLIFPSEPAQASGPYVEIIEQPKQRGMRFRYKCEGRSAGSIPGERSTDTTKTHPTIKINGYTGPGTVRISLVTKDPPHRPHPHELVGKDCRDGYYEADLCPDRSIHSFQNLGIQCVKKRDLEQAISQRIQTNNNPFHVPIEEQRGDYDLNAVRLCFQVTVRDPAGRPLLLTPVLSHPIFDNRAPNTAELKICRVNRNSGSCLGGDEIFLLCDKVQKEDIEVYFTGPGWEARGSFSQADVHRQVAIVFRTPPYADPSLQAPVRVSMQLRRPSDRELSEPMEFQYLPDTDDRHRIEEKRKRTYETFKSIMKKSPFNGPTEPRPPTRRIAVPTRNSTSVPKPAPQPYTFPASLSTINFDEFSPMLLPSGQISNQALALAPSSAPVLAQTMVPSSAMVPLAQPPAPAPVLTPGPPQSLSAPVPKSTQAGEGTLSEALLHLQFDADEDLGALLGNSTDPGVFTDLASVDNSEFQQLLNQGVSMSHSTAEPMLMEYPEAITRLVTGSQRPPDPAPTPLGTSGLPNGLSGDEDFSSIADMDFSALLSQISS
UniProt Q9WV30: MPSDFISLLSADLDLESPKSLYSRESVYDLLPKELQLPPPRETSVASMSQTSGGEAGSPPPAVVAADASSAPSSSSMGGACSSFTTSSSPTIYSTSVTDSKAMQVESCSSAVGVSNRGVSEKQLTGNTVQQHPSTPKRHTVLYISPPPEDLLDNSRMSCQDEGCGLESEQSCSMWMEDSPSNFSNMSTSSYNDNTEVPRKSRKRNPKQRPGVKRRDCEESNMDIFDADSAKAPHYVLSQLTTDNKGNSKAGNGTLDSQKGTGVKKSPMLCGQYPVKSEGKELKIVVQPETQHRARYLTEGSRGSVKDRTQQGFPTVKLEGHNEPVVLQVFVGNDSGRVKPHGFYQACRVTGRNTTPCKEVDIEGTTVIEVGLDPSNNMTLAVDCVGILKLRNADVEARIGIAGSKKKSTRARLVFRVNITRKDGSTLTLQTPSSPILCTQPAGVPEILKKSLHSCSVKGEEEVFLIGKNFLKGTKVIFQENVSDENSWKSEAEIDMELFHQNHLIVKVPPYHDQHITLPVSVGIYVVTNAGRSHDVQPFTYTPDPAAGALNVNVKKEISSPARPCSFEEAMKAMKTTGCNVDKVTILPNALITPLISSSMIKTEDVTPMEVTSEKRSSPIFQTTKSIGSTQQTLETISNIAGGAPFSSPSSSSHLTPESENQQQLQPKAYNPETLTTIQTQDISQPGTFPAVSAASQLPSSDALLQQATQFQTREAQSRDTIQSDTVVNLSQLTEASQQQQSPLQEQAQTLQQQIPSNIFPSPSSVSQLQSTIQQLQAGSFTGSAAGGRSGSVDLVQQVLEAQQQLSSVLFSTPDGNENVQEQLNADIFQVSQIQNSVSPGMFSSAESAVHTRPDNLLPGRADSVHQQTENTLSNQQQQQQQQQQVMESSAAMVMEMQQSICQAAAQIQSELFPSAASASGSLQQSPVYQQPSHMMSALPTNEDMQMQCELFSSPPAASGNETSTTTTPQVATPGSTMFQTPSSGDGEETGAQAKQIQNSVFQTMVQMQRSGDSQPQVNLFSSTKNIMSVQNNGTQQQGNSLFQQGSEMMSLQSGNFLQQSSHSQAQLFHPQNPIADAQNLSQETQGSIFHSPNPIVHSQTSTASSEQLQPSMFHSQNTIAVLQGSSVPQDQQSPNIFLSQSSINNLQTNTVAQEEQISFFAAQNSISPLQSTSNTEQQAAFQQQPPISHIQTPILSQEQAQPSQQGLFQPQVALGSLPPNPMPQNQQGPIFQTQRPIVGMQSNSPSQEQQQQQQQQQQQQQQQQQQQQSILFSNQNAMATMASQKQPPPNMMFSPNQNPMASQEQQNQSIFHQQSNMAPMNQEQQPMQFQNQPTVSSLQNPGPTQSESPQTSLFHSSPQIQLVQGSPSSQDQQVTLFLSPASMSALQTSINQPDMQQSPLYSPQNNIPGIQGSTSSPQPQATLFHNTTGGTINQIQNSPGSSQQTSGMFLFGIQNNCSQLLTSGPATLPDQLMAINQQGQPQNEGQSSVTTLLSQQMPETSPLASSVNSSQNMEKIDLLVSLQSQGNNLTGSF

How the values were obtained:
[1] = target: p65 (RelA), p65-containing NFkB in RAW264.7 nuclear extract (UniProt Q04207); assay: EMSA supershift; conditions: EMSA: 5 ug nuclear extract, Lightshift kit binding buffer, poly(dI:dC), room temperature 20 min, protein in an extract, label: 5' biotin
[2] = target: p65 (RelA), p65-containing NFkB in RAW264.7 nuclear extract (UniProt Q04207); assay: EMSA; conditions: TonEBP siRNA, binding not affected; EMSA: 5 ug nuclear extract, Lightshift kit binding buffer, poly(dI:dC), room temperature 20 min; protein in an extract; label: 5' biotin
[3] = test system: p65 (RelA), p65-containing NFkB in RAW264.7 nuclear extract + TonEBP/NFAT5; assay: DNA affinity pull-down; conditions: LPS 1 h cell extract, TonEBP recruited indirectly via p65; DAPA: 4 mM Tris-HCl pH 7.5, 20 mM HEPES pH 7.5, 5% glycerol, 170 mM NaCl, 0.5 mM EDTA, 1 mM MgCl2, 0.1% Triton X-100, 30 nM probe, overnight; protein in an extract; label: 5' biotin
[4] = target: p65 (RelA), p65-containing NFkB in RAW264.7 nuclear extract (UniProt Q04207); assay: DNA affinity pull-down; conditions: DAPA: 4 mM Tris-HCl pH 7.5, 20 mM HEPES pH 7.5, 5% glycerol, 170 mM NaCl, 0.5 mM EDTA, 1 mM MgCl2, 0.1% Triton X-100, 30 nM probe, overnight, protein in an extract, label: 5' biotin
TonEBP/NFAT5 [5] = target: TonEBP/NFAT5 (UniProt Q9WV30); assay: competition with a labelled probe; conditions: EMSA: 5 ug nuclear extract, Lightshift kit binding buffer, poly(dI:dC), room temperature 20 min, protein in an extract, label: 5' biotin, unlabeled as competitor
TonEBP/NFAT5 [6] = target: TonEBP/NFAT5 (UniProt Q9WV30); assay: EMSA; conditions: EMSA: 5 ug nuclear extract, Lightshift kit binding buffer, poly(dI:dC), room temperature 20 min; protein in an extract; label: 5' biotin, unlabeled as competitor
TonEBP/NFAT5 [7] = target: TonEBP/NFAT5 (UniProt Q9WV30); assay: EMSA supershift; conditions: hypertonic (+75 mM NaCl, 24 h), TonEBP antiserum, competed by 50x cold T0; EMSA: 5 ug nuclear extract, Lightshift kit binding buffer, poly(dI:dC), room temperature 20 min; protein in an extract; label: 5' biotin

AAACAGGGGGCTTTCCCTCCTC (double strand) [N1 (kB site of TNFa promoter)]
binding result ([1]; LPS 1 h, p65 antibody, competed by 50x cold N1): binds
binding result ([1]; cells pretreated with cerulenin, LPS, binding not affected): binds
binding result [2]: binds
binding result [3]: binds
binding result ([4]; LPS 1 h cell extract, immunoblot): binds
binding result ([4]; TonEBP siRNA, binding not affected): binds

ACCAAGGAAGTTTTCCGAGGGTT (double strand) [T3 (putative TonE)]
binding result (TonEBP/NFAT5 [5]; 50x unlabeled T3 against T0 probe): no binding
binding result (TonEBP/NFAT5 [6]): no binding

GCTCCGTGGAAAACTCACTTGG (double strand) [T1 (putative TonE)]
binding result (TonEBP/NFAT5 [5]; 50x unlabeled T1 against T0 probe): no binding
binding result (TonEBP/NFAT5 [6]): no binding

TCATAATGGAAAATTCCATGCCA (double strand) [T0 (TonE positive control)]
binding result (TonEBP/NFAT5 [7]): binds

TGTCCCCAACTTTCCAAACCCT (double strand) [T2 (putative TonE)]
binding result (TonEBP/NFAT5 [5]; 50x unlabeled T2 against T0 probe): no binding
binding result (TonEBP/NFAT5 [6]): no binding

Construct, isoform or probe ends are uncertain for at least one entry. Results from cells or extracts need not show a direct contact. For some of these results: A negative result means that nothing was seen under these conditions.
